The target in experiment [1] is HDAC4 (endogenous, mouse brain) (mouse (endogenous in mouse brain)) (UniProt Q6NZM9). Put plainly: co-IP; whole brain lysates of 8-wk-old mice in HEPES buffer, protein-G Dynabeads overnight at 4°C; immunoprecipitation with HDAC4 (DM-15 or H-92) or HDAC5 (ab56929) antibodies, HTT detected with MAB2166 or MW1.
Experiment [2] has as its target HDAC5 (endogenous, mouse brain) (mouse (endogenous in mouse brain)) (UniProt Q9Z2V6). The experiment is described as above.

The chains behind the UniProt entries cited, without tags or fusion partners.
UniProt Q6NZM9: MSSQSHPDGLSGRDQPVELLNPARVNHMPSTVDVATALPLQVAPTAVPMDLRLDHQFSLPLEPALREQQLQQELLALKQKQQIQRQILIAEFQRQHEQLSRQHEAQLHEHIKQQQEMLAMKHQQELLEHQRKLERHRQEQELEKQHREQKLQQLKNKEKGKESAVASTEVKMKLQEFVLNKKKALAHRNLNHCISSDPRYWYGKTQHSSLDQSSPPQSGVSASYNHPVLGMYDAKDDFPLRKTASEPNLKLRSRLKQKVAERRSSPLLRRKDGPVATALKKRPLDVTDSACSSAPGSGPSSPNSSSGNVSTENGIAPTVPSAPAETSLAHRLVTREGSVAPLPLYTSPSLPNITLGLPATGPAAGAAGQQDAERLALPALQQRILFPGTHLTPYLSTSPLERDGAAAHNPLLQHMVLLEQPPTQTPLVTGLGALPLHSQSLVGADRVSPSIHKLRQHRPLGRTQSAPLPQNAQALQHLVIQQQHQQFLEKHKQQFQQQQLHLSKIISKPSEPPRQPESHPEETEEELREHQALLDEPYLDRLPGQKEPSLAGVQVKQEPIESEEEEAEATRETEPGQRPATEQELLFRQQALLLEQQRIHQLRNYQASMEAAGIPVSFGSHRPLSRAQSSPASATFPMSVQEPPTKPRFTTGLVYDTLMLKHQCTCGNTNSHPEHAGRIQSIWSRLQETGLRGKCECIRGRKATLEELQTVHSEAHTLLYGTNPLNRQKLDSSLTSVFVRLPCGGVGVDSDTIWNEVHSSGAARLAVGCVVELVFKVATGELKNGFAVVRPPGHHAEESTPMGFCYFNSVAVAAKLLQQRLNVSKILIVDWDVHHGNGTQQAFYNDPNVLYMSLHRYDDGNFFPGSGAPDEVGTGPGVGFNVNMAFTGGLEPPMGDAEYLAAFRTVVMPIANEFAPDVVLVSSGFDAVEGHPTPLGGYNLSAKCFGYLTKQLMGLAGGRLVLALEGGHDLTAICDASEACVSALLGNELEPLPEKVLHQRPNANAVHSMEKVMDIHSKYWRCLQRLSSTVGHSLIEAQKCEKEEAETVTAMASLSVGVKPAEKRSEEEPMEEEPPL
UniProt Q9Z2V6: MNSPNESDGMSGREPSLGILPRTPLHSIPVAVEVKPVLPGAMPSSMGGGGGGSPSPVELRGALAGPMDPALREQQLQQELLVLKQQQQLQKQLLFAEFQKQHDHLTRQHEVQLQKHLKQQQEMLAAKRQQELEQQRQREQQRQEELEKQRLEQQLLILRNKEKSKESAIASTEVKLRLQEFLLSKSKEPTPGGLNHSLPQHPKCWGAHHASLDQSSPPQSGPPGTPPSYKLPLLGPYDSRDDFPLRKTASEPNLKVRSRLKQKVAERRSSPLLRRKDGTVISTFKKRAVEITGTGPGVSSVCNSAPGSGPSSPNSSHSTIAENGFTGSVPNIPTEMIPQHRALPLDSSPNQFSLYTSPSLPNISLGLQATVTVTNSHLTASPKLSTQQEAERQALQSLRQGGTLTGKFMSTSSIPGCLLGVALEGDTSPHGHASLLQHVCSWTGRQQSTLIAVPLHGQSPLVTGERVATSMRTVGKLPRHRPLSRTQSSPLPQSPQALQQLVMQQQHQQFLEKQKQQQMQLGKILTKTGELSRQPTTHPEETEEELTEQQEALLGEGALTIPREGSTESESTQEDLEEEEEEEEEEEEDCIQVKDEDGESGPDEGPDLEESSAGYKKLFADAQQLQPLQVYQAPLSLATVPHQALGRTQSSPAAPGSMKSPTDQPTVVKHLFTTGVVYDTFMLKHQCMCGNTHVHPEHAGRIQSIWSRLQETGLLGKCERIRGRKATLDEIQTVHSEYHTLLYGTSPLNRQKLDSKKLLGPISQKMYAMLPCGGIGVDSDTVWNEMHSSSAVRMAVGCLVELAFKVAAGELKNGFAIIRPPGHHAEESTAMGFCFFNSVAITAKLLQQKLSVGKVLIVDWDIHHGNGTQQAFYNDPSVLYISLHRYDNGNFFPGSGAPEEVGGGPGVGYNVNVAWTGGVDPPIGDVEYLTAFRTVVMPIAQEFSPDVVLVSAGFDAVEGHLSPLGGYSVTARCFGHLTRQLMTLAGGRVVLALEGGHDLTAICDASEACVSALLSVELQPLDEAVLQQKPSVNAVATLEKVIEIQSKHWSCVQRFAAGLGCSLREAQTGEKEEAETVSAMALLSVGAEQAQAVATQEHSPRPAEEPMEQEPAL
UniProt P42859: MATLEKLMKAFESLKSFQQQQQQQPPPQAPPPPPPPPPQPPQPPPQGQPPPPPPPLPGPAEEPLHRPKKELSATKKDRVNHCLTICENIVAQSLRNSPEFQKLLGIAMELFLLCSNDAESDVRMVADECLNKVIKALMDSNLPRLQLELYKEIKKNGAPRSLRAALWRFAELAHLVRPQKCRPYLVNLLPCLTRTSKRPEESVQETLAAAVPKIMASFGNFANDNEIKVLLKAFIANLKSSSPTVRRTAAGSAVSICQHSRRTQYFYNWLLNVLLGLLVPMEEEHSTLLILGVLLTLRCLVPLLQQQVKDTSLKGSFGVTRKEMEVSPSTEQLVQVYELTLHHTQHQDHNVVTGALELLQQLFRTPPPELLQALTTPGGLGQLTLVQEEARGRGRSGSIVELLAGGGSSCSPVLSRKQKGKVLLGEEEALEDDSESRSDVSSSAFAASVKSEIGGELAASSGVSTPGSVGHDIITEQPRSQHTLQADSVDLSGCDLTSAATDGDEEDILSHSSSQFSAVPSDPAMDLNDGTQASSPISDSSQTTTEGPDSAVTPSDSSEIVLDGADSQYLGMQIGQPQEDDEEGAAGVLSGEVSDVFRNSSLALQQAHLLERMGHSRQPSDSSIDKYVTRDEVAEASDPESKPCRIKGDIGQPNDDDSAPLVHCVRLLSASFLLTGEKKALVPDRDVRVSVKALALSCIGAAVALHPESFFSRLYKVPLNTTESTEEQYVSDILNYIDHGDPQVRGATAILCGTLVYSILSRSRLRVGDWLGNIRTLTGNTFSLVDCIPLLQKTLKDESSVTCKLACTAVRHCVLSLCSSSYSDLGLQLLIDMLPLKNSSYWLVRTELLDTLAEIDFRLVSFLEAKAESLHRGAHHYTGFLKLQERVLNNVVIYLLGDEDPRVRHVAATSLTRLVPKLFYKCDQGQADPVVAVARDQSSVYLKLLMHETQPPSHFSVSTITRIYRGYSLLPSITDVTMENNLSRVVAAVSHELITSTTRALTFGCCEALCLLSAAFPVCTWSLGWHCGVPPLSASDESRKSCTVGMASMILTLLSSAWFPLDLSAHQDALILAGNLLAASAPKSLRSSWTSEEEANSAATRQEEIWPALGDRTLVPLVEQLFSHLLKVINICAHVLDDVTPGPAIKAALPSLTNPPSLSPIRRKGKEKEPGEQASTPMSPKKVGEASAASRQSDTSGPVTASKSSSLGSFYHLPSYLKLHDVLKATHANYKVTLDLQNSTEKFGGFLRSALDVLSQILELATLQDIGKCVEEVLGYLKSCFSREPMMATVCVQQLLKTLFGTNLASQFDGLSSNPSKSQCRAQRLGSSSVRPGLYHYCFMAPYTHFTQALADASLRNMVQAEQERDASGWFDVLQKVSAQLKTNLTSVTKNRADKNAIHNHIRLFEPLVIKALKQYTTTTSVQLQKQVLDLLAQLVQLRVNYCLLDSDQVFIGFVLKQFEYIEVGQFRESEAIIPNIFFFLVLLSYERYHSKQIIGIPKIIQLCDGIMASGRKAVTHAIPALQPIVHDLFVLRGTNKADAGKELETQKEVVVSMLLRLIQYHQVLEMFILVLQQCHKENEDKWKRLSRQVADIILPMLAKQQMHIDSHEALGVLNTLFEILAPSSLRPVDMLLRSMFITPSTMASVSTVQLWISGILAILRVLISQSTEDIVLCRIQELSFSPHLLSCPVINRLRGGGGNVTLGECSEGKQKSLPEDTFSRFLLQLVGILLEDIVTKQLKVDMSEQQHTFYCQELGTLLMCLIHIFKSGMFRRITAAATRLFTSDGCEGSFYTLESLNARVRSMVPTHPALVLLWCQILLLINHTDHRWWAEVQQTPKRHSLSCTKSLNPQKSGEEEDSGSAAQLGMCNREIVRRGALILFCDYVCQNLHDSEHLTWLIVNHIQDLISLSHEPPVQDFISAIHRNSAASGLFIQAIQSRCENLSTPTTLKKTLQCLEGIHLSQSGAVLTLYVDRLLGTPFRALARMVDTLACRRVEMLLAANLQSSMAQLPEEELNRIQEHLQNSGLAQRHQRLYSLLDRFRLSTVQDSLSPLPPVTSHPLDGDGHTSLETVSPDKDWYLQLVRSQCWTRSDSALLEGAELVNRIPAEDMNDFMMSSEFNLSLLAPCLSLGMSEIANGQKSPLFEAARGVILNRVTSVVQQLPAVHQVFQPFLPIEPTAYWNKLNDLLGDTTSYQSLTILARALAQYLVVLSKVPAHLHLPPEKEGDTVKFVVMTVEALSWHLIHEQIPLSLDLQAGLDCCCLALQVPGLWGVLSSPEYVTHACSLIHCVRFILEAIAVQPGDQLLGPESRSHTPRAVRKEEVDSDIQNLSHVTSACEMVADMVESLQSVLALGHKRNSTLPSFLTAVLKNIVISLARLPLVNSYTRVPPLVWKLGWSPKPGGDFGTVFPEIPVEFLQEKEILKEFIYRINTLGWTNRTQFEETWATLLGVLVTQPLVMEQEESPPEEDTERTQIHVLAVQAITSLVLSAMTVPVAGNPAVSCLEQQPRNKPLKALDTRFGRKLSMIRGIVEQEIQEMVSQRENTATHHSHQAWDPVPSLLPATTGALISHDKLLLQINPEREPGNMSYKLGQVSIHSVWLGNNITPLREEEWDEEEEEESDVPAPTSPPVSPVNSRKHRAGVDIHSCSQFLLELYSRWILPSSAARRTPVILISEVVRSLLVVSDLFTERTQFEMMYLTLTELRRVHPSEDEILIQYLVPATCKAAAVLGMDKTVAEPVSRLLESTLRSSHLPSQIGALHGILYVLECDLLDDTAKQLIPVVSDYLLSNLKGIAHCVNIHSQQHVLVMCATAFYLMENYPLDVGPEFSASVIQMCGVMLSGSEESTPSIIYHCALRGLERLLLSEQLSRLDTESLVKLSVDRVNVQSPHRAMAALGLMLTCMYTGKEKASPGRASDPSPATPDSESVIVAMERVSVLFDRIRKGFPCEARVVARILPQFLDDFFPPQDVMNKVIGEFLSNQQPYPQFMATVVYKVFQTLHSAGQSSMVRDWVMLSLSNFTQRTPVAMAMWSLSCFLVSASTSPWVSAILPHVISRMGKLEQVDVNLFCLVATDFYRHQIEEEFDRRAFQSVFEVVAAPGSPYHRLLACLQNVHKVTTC

No constants are given. Whether binding was seen depends on the method and setting. Binding seen in cells or lysates may run through a third protein.

As to “wild-type HTT (7Q), endogenous mouse huntingtin (from UniProt P42859 1-3119)”, the binding result in experiment [1] and in experiment [2] was “no binding” each time.

Values taken from publication PMC3841096.
